# Test results from the supplement of paper PMC12067093, “Discovery and optimisation of a covalent ligand for TRIM25 and its application to targeted protein ubiquitination” (Chemical Science, 2025).
# Protein sequences, listed by entry. Tags and fused reporters are not part of them. Lines headed by an entry give the natural chain unless they say otherwise; changes in a name come on top.
# UniProt O43488: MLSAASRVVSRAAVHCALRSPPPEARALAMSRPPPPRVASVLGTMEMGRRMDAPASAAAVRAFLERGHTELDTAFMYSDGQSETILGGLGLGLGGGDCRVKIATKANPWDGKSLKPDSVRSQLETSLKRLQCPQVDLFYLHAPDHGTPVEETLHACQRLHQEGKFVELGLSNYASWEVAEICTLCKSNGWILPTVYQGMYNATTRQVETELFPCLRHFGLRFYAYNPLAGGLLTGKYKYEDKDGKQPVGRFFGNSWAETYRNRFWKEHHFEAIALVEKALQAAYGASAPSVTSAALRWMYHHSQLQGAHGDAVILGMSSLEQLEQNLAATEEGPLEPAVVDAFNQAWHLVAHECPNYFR
# UniProt Q96HN2, whole entry, looked up: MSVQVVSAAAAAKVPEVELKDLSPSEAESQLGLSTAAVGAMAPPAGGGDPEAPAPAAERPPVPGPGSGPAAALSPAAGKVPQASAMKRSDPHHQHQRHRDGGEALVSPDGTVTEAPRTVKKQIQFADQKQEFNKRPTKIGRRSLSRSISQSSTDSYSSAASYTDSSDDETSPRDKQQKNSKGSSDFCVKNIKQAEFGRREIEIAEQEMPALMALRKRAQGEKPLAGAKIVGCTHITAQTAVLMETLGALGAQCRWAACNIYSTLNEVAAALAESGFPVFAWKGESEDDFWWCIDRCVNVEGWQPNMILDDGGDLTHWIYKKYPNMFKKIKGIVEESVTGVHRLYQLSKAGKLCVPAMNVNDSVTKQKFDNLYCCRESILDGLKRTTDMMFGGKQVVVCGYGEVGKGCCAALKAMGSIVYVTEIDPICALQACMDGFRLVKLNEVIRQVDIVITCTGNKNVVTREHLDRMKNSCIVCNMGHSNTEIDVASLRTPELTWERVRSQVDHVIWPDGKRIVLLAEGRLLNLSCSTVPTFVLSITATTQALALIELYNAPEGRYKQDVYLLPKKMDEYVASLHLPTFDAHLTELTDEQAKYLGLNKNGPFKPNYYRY
# UniProt P54886: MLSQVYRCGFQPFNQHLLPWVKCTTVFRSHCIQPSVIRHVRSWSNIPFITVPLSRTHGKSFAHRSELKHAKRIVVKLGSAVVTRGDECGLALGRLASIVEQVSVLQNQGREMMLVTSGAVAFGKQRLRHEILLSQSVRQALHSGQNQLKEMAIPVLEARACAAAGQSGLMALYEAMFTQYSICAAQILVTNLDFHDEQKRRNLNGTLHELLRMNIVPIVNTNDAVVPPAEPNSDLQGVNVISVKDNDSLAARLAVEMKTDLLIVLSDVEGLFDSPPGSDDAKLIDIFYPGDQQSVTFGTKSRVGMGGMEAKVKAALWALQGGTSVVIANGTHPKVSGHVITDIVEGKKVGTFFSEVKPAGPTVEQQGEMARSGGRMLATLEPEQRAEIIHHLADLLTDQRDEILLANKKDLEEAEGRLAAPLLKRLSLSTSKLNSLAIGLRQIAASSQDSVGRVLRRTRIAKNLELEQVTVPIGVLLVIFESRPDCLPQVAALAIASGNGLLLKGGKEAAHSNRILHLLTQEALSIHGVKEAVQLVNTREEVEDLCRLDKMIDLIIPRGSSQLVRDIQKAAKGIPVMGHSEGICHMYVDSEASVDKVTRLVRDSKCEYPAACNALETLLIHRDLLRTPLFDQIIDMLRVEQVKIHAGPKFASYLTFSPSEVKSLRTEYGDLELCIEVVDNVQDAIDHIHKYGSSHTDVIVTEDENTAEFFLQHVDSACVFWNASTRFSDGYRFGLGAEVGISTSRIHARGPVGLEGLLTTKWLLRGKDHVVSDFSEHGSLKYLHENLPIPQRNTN
# UniProt O00170: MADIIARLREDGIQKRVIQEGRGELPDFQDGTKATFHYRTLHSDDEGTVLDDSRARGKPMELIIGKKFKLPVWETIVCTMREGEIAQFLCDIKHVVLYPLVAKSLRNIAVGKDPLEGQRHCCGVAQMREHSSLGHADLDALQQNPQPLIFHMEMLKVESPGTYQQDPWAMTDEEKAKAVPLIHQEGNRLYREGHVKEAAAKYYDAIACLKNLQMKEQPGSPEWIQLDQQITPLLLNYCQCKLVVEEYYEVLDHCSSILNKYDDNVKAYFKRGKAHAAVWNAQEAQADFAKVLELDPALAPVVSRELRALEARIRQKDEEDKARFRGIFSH
# UniProt P49189: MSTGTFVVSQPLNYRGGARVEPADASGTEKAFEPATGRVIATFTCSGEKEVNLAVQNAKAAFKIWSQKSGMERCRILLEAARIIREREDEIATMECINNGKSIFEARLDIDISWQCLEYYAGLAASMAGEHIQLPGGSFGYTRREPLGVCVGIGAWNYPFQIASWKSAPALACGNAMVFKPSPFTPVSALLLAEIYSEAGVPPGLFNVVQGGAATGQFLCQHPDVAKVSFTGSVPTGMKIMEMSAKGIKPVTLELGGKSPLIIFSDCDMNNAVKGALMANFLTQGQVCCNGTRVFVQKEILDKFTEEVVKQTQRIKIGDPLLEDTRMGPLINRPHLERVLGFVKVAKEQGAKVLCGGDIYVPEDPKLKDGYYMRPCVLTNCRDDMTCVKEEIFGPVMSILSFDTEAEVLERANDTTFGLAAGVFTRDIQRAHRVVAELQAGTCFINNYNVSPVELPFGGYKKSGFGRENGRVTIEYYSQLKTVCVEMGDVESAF
# UniProt Q9UJX3, whole entry, looked up: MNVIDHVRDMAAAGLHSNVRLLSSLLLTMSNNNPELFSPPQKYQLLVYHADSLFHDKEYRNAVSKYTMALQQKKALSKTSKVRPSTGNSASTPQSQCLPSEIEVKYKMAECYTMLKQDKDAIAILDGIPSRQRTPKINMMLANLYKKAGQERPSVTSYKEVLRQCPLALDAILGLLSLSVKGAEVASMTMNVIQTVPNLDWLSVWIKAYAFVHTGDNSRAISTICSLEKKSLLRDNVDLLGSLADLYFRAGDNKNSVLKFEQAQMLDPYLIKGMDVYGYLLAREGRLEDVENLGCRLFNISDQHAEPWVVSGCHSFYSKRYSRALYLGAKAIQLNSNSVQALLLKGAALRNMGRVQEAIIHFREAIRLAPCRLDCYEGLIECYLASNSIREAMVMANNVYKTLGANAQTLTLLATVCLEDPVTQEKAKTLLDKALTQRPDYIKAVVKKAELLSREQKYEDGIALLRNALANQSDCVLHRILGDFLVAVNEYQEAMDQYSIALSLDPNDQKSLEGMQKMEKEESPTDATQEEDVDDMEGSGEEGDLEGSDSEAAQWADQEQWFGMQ
# UniProt O00116: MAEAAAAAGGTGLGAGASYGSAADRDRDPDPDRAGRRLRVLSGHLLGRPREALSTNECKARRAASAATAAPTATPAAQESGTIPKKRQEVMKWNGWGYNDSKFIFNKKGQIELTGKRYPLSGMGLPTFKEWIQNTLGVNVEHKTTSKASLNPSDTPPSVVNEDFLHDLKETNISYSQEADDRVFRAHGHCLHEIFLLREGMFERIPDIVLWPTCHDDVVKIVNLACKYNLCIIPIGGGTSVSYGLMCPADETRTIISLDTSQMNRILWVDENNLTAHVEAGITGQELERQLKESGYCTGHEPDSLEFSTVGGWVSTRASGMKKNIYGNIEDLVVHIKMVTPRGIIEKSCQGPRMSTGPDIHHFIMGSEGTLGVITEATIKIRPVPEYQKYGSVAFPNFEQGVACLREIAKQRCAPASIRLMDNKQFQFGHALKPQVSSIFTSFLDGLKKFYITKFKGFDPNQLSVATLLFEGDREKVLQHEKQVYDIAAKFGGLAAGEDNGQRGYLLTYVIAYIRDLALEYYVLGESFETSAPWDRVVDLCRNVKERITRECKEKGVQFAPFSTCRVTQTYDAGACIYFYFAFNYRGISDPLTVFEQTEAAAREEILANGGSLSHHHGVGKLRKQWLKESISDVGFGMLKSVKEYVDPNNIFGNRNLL
# UniProt O43865, whole entry, looked up: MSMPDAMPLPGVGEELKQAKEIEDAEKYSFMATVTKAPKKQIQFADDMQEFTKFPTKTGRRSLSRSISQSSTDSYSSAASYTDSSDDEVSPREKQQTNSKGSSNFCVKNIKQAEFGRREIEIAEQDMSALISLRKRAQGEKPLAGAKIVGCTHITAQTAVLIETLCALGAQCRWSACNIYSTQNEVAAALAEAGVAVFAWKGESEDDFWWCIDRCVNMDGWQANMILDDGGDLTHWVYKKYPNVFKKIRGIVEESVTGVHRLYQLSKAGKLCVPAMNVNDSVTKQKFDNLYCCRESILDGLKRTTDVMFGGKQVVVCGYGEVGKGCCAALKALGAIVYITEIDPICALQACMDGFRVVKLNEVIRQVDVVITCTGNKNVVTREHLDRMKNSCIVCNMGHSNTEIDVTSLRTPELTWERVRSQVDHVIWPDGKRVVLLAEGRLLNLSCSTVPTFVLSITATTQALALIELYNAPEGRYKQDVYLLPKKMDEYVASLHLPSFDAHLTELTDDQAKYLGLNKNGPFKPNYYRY
# UniProt P02760: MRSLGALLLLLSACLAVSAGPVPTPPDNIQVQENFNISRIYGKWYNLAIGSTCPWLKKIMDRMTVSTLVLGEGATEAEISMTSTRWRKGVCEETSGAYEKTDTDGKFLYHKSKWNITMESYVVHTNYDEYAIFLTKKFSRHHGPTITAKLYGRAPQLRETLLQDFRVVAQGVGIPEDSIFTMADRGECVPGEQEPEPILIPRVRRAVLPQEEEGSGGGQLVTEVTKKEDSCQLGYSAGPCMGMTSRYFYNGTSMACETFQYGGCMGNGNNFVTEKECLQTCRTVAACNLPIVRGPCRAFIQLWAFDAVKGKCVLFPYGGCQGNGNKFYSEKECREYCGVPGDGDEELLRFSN
# UniProt Q92667: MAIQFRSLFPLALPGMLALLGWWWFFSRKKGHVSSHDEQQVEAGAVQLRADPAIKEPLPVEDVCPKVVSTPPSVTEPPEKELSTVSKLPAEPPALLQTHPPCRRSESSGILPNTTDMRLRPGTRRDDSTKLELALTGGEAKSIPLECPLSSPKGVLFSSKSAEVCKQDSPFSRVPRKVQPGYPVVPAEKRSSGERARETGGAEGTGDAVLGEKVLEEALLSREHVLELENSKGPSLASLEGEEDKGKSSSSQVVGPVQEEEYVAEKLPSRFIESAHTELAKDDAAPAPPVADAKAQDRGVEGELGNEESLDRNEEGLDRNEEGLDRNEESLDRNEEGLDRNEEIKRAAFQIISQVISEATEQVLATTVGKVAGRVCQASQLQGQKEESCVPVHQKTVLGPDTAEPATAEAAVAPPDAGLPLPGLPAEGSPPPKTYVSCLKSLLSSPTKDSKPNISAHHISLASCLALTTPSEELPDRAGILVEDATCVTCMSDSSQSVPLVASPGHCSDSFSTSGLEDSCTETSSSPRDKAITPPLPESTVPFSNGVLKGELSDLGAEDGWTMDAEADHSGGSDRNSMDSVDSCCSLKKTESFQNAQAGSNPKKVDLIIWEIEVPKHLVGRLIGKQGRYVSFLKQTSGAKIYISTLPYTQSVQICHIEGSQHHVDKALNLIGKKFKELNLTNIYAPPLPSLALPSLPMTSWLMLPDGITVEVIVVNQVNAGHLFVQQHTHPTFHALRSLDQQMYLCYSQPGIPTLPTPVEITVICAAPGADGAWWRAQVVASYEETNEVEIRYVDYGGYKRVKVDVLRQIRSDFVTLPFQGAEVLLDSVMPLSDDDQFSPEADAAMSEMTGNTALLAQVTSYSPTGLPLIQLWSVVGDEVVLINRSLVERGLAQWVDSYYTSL
# UniProt O95433, whole entry, looked up: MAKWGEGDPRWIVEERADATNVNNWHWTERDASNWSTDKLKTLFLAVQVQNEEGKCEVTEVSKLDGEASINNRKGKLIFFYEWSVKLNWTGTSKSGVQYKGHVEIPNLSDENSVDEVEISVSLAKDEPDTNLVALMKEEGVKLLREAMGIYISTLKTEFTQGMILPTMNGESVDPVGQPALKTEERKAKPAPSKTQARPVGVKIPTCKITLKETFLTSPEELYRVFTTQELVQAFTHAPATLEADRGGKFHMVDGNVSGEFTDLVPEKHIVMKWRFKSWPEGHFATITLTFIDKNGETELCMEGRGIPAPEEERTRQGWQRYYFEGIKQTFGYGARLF
# The other results are listed elsewhere or left out.
# Compound: Cc1cc(ccc1-c1ccccc1)C(=O)N1CCCN(CC1)C(=O)CCl [compound 10]
# Experiment: probe-labelled cysteine peptide fold change vs DMSO (competition) (log2 fold change); higher = less target engagement (more negative = stronger competition)
# Details: 50 µM; THP-1; incubation time: 4 h
# 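Further: competitive profiling in live THP-1 cells: cysteine peptides tagged with an iodoacetamide desthiobiotin (IA-DTB) probe, intensity after compound treatment relative to DMSO-treated cells.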
row,Target,probe-labelled cysteine peptide fold change
1,AKR7A2_O43488_132_LQCPQVDLFYLHAPDHGTPVEETLHACQR (UniProt O43488),0.725
2,AKR1B1_P15121_187_PAVNQIECHPYLTQEK (UniProt P15121),0.23
3,ALDH16A1_Q8IZ83_39_CLGHYVNGK (UniProt Q8IZ83),-0.0466
4,AHCYL2_Q96HN2_232_IVGCTHITAQTAVLMETLGALGAQCR (UniProt Q96HN2),0.0597
5,ANK3_Q12955_4233_LDDSPDQCR (UniProt Q12955),0.374
6,ALDH18A1_P54886_674_TEYGDLELCIEVVDNVQDAIDHIHK (UniProt P54886),0.171
7,AIP_O00170_78_LPVWETIVCTMR (UniProt O00170),-0.31
8,ALDH9A1_P49189_484_TVCVEMGDVESAF (UniProt P49189),-0.0819
9,AKAP8L_Q9ULX6_128_LDMVPHLETDMMQGGVYGSGGERYDSYESCDSR (UniProt Q9ULX6),-0.639
10,ANAPC7_Q9UJX3_259_AISTICSLEK (UniProt Q9UJX3),-0.74
11,AMPD3_Q01432_47_DALSLFTVPEDCPIGQK (UniProt Q01432),-0.147
12,ALDH18A1_P54886_674_SLRTEYGDLELCIEVVDNVQDAIDHIHK (UniProt P54886),-0.188
13,AKAP8L_Q9ULX6_487_KVEAAHCAACDLFIPMQFGIIQK (UniProt Q9ULX6),-0.136
14,AGPS_O00116_58_EALSTNECK (UniProt O00116),-0.269
15,ANKHD1_Q8IWZ3_1716_GGCNITAIQDVTGAHIDVDK (UniProt Q8IWZ3),0.0508
16,ANAPC1_Q9H1A4_1630_LLVPVDVDTNTPCYALLEVTYK (UniProt Q9H1A4),0.155
17,AHCYL1_O43865_272_LCVPAMNVNDSVTK (UniProt O43865),-0.135
18,AHCYL1_O43865_215_CVNMDGWQANMILDDGGDLTHWVYKK (UniProt O43865),-0.06
19,AMBP_P02760_281_ECLQTCR (UniProt P02760),-0.671
20,AKAP1_Q92667_102_LPAEPPALLQTHPPCR (UniProt Q92667),-0.34
21,AHSA1_O95433_301_NGETELCMEGR (UniProt O95433),0.249
22,ANKFY1_Q9P2R3_460_GSHTDAPDTATGNCLLQR (UniProt Q9P2R3),-0.113
